Assay results taken from article PMC8535089.
Results are given in words; binding and its absence hold for the method and conditions named. Binding seen in cells or lysates may run through a third protein. A yes stands for co-enrichment or nearness to the bait. Other partners may have been found.

The chains behind the UniProt entries cited, without tags or fusion partners. Residues count along the entry.
UniProt Q13586, residues 23-685: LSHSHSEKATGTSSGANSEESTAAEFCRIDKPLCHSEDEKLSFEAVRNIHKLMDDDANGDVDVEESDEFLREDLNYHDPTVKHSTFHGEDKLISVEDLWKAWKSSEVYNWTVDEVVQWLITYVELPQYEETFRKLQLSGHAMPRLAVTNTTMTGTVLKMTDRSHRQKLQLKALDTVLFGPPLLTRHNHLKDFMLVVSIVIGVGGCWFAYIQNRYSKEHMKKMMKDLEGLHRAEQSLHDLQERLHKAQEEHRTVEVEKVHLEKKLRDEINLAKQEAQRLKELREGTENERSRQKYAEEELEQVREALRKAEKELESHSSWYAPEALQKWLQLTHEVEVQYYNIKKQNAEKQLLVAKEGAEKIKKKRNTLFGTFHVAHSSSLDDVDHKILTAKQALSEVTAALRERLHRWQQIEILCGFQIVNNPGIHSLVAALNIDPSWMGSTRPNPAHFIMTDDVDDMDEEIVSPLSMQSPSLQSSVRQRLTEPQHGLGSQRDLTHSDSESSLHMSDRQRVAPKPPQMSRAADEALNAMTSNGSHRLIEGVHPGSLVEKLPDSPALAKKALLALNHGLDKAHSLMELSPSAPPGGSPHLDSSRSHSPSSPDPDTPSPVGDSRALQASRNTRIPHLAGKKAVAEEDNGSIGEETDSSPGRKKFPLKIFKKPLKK
UniProt P83093, residues 15-746: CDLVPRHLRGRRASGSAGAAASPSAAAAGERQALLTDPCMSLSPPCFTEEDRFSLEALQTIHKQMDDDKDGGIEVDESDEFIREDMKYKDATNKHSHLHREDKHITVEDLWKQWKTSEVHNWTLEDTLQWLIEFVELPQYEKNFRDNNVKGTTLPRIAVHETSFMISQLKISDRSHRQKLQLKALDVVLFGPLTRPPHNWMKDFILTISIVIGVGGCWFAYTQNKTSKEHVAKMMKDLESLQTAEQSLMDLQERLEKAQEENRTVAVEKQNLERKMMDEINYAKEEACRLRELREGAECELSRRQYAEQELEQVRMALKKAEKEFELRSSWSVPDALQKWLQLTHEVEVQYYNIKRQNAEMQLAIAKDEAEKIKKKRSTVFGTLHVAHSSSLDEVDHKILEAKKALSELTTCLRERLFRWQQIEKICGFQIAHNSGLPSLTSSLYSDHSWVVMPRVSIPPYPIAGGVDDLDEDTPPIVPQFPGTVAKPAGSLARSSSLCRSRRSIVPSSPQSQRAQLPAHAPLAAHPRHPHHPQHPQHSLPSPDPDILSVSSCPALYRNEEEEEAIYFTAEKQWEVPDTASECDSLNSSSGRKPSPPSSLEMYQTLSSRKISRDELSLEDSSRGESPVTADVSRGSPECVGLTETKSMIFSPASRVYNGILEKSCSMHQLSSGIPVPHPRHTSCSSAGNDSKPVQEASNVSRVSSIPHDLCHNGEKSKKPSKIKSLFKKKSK

Target: human STIM1 C-terminally tagged with BioID construct (STIM1-BioID) (human) (UniProt Q13586)
Assay: proximity labelling; BioID: STIM1-BioID stably expressed in MEF, 10 µM biotin in the media for 16 h, lysis in RIPA buffer, biotinylated proteins collected on streptavidin beads, LC/MS/MS with label-free quantification, four replicates, against control MEF

Substance: STIM2 (from UniProt P83093 15-746)
- binding: binds
